The other results are listed elsewhere or left out.
Experiments:
Experiment in all cases: log2 fold change, soluble protein after heating vs DMSO (PISA); higher = thermal stabilisation; K562 lysate, 10 uM; active = over 0.2 and 3.5 SD of the protein, either way, in both replicates (recomputed)
[1] = compound: C#Cc1cccc(Nc2ncnc3cc(OCCOC)c(OCCOC)cc23)c1 [erlotinib]
Procedure, shortened: (§1)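 Pellets of K562 cells were dounce-homogenised in PBS pH 7.4 with 1 mM MgCl2, and the crude extract was held at 1 mg/mL protein for a 30 min treatment with 10 μM compound. Aliquots were heated for 3 min over 48°C-58°C and pooled before NP-40 was added to 0.5% at 4°C. The supernatant from 21,000xg for 90 min was quantified by TMTpro 16plex LC-MS/MS with channel sums equalised. Values are reported from duplicates as log-two fold change in thermal stability relative to solvent controls.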

By UniProt entry, the sequences of proteins in these tests, tags left out. Where a name states a change or a piece, a line headed by the entry shows the natural chain unless it says otherwise.
UniProt Q86YP4: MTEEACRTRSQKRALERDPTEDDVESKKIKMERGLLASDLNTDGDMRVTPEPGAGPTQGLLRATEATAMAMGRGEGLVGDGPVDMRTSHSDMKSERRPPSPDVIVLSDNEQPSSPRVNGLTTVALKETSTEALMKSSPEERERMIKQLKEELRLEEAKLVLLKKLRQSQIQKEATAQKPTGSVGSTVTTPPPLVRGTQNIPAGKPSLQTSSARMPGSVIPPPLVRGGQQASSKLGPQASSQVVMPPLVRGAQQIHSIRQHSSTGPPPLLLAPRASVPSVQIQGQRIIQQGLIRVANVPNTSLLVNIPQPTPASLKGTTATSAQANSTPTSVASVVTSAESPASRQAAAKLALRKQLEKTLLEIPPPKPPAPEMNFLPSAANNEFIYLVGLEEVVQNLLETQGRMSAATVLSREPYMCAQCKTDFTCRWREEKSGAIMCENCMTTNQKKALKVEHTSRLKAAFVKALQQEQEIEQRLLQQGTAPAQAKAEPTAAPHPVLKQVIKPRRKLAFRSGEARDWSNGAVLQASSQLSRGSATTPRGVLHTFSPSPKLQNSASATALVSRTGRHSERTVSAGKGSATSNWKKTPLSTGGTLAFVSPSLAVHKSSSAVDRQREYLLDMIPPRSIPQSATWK
UniProt P51116, whole entry, looked up: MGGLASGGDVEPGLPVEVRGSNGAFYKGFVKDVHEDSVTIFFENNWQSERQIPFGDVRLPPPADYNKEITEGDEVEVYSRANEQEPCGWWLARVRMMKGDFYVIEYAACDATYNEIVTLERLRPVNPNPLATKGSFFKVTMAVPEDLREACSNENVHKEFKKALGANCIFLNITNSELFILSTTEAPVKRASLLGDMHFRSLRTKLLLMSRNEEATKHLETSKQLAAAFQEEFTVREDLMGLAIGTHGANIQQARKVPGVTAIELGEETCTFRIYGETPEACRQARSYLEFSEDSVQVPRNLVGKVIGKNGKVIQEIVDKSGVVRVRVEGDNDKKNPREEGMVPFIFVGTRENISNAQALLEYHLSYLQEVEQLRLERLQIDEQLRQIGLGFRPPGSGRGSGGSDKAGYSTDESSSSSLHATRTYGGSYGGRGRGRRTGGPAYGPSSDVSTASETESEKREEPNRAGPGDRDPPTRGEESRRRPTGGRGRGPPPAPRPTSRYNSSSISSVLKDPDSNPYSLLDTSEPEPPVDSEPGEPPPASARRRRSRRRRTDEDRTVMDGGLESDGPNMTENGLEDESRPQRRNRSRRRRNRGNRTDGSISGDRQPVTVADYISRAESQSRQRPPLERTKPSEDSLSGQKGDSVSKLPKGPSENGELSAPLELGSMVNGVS
UniProt Q9C0B1, whole entry, looked up: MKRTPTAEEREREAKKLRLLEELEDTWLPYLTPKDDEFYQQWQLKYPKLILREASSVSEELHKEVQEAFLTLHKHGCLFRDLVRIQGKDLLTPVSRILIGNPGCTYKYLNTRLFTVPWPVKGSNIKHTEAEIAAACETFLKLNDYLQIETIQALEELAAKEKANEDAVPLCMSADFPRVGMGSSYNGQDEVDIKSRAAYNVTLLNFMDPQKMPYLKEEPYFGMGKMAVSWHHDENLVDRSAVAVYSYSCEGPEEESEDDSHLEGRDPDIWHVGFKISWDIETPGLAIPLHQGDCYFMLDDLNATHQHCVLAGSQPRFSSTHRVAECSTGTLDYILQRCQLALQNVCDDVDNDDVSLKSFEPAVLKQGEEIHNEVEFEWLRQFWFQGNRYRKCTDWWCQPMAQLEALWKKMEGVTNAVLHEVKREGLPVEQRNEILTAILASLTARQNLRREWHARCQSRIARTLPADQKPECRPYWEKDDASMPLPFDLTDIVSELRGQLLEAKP
UniProt Q9UJY5: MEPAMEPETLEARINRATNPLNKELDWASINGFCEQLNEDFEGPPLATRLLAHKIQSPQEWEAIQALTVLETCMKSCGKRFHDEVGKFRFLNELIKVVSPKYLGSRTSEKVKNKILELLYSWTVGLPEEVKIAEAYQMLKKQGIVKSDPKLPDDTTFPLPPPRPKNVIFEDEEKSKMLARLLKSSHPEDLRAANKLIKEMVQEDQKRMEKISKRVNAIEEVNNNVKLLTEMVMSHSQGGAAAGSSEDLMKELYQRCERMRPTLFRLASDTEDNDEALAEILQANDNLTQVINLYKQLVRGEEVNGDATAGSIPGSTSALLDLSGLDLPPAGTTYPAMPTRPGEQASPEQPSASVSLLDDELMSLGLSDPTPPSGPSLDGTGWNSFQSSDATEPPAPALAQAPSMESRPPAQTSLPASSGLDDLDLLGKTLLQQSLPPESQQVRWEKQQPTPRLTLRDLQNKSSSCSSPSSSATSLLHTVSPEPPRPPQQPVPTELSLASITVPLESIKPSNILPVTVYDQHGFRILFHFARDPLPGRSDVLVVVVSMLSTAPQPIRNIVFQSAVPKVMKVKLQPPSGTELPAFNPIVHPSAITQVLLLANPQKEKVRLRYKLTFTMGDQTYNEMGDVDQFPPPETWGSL
UniProt O43524: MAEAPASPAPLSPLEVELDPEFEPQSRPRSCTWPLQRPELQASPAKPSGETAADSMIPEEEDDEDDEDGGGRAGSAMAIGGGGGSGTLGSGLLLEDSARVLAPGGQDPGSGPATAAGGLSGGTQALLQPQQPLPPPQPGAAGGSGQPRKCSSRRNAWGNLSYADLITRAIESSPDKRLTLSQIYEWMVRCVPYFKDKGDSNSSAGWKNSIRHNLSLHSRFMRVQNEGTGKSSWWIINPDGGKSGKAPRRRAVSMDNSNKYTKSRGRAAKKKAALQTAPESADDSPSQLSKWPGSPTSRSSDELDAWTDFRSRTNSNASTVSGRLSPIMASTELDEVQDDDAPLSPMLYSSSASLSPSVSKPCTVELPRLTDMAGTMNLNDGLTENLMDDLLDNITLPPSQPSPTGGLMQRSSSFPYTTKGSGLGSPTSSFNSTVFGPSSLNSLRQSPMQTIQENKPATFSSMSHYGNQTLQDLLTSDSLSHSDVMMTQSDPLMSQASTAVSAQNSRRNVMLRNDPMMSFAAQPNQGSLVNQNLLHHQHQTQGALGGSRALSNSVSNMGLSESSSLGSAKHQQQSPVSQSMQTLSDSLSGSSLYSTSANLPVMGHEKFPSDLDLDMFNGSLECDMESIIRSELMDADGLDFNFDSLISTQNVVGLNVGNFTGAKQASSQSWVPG
UniProt Q92616, whole entry, looked up: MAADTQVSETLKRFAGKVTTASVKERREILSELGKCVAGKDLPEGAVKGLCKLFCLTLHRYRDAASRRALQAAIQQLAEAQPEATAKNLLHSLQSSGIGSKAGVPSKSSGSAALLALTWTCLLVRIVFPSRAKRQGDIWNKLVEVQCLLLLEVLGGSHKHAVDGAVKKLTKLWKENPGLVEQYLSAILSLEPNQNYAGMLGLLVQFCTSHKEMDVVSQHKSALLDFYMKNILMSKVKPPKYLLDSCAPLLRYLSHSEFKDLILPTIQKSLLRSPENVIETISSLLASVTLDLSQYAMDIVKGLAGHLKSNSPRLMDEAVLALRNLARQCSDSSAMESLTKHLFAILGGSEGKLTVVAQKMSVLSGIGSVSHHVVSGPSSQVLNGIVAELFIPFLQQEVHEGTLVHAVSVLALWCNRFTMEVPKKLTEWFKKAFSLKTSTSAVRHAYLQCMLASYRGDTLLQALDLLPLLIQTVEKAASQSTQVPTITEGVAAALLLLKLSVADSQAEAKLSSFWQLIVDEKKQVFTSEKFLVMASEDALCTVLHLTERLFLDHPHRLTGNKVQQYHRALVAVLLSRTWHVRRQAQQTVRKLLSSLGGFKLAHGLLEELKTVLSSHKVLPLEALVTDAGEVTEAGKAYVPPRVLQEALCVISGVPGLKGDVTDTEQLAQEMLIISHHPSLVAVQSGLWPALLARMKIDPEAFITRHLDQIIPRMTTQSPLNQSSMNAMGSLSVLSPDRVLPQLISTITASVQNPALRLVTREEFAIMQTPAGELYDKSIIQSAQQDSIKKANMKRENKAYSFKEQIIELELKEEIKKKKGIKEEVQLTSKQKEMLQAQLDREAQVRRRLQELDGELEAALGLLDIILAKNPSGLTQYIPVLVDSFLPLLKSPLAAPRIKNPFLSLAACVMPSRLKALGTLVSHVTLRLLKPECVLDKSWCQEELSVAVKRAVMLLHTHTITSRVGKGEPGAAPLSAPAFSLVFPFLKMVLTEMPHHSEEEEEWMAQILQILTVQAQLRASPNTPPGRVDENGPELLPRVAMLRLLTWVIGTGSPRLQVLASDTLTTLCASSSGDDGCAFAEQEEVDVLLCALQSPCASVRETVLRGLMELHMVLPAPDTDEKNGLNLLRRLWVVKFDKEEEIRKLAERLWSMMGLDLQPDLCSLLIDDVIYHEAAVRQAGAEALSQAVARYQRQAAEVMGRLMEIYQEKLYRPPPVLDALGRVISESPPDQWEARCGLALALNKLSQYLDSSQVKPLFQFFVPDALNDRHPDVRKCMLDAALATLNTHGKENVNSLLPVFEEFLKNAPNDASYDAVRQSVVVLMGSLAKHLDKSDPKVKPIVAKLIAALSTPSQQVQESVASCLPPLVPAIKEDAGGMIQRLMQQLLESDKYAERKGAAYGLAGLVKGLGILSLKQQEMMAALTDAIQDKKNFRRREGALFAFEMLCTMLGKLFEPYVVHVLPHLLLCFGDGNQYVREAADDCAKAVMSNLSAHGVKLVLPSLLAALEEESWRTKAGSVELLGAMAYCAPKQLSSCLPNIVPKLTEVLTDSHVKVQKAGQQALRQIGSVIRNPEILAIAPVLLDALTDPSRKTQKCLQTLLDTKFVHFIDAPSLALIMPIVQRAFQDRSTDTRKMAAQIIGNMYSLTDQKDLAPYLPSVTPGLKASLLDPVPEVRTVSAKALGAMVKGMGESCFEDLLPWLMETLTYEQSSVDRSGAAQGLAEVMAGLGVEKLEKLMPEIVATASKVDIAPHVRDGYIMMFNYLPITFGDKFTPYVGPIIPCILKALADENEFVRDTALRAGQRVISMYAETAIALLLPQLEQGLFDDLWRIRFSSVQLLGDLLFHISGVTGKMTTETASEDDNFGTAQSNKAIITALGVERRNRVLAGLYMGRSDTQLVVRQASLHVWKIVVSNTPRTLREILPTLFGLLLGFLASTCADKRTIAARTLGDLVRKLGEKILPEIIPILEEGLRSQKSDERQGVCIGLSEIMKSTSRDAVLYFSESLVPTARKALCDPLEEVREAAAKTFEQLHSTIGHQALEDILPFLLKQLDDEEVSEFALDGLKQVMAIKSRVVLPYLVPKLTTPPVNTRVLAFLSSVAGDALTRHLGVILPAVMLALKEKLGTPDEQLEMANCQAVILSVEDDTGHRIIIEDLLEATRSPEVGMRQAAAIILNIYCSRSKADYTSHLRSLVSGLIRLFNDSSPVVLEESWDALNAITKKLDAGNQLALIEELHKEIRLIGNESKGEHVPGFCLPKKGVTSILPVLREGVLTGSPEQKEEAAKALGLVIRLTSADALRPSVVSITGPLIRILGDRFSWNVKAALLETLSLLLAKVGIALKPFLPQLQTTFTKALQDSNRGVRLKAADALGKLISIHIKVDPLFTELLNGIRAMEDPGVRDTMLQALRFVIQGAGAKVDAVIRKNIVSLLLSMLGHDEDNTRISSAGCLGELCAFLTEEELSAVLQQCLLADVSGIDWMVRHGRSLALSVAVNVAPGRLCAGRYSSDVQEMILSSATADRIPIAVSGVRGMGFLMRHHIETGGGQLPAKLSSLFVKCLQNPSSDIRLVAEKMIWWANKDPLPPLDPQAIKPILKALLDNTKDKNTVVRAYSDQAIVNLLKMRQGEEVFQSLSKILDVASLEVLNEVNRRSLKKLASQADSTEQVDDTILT
UniProt Q13069: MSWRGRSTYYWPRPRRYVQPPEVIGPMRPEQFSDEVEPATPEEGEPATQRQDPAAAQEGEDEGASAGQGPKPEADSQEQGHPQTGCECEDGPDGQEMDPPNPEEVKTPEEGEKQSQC
UniProt P07902: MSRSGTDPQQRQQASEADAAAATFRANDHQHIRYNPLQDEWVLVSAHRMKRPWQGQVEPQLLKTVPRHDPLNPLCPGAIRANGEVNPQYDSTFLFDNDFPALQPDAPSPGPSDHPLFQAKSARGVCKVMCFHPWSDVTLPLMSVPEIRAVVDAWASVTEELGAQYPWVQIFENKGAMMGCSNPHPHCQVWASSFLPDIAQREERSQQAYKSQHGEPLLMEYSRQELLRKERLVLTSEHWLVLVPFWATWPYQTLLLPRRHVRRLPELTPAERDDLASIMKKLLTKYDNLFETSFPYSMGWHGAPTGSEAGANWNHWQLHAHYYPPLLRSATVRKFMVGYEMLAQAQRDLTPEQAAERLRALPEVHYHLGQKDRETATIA

[2] = compound: C/C(=N\NC(=O)C1=CC(=CC=C1)S(=O)(=O)N2CCOCC2)/C3=C(C=CC(=C3)Cl)O
Procedure, shortened: as §1

[3] = compound: C1=CC(=CC=C1C2=NC3=C(N2)C=C(C=C3)C(=O)N)OC4=CC=C(C=C4)Cl
Procedure, shortened: as §1

[4] = compound: C1=CC2=C(C=CC(=C2)/C=C\3/C(=O)NC(=NCC4=CC=CS4)S3)N=C1
Procedure, shortened: as §1

[5] = compound: C1=CC2=NC=CN=C2C=C1/C=C/3\C(=O)NC(=O)S3
Procedure, shortened: as §1

[6] = compound: C1=CC=C(C=C1)C2=NC(=C(N2)C3=CC=NC=C3)C4=CC(=C(C=C4)Cl)O
Procedure, shortened: as §1

[7] = compound: C1=CC=C2C(=C1)C3=NNC4=CC=CC(=C43)C2=O
Procedure, shortened: as §1

[8] = compound: C1CCN(C1)C(=O)NC2=CC=CC(=C2)NC3=NC=C(C(=N3)NCCC4=CN=CN4)Br
Procedure, shortened: as §1

[9] = compound: C1CN(CCC1(CC2=CC=C(C=C2)Cl)N)C3=NC=NC4=C3C=CN4
Procedure, shortened: as §1

[10] = compound: C1COCCN1CCN2C3=CC=CC=C3N=C2NC(=O)C4=CC(=CC=C4)[N+](=O)[O-] [IRAK-1-4 Inhibitor I]
Procedure, shortened: as §1

[11] = compound: C=CC(=O)N1CCC[C@@H](n2nc(-c3ccc(Oc4ccccc4)cc3)c3c(N)ncnc32)C1 [ibrutinib]
Procedure, shortened: as §1

[12] = compound: CC(=O)c1cnc2ccc(-c3cc(Cl)c(O)c(Cl)c3)nc2c1N[C@H]1CC[C@H](CN(C)C)CC1
Procedure, shortened: as §1

[13] = compound: CC(C)(C)Cn1c(N)nc2ccc(-c3[nH]c(C(C)(C)C)nc3-c3ccc(F)cc3)nc21 [ralimetinib]
Procedure, shortened: as §1

[14] = compound: CC(C)(O)CC(=O)NCCn1ccc2ncnc(Nc3ccc(Oc4cccc(C(F)(F)F)c4)c(Cl)c3)c21
Procedure, shortened: as §1

[15] = compound: CC(C)C1=C2N=C(C=C(N2N=C1)NCC3=CC=CC=C3)NCCCCCCN
Procedure, shortened: as §1

[16] = compound: CC1=C(C(CC(=O)N1)C2=CC=C(C=C2)C(F)(F)F)C(=O)NC3=C(C=C4C(=C3)C=NN4)F
Procedure, shortened: as §1

[17] = compound: CC1=C(C2=C(C=C1)C(=O)C3=CC=CC=C3N2CCCN)C
Procedure, shortened: as §1

[18] = compound: CC1=C(C=C(C=C1)NC(=O)C2=CC(=CC=C2)C(C)(C)C#N)NC3=CC4=C(C=C3)N=CN(C4=O)C
Procedure, shortened: as §1

[19] = compound: CC1=C(C=C(C=C1)NC(=O)C2=CC(=CC=C2)N(C)C)NC(=O)C3=CC=C(C=C3)O
Procedure, shortened: as §1

[20] = compound: CC1=CC=C(C=C1)SC2=C3C=C(SC3=CN=C2)C(=O)N
Procedure, shortened: as §1

Measured: log2 fold change

GATAD2A isoform 3 (UniProt Q86YP4)
inactive: [1] 0.012 | [2] -0.124 | [3] -0.003 | [4] -0.034 | [5] 0.003 | [6] -0.002 | [7] -0.035 | [8] -0.037 | [9] 0.034 | [10] -0.016 | [11] 0.017 | [12] 0.008 | [13] 0.023 | [14] 0.01 | [15] 0.012 | [16] -0.004 | [17] 0.005 | [18] 0.01 | [19] 0.016 | [20] -0.005

FXR2 (UniProt P51116)
inactive: [1] 0.018 | [2] 0.026 | [3] -0.01 | [4] -0.042 | [5] 0.022 | [6] -0.029 | [7] -0.092 | [8] -0.085 | [9] 0.003 | [10] -0.075 | [11] 0.027 | [12] -0.008 | [13] 0.028 | [14] 0.004 | [15] 0.026 | [16] 0.024 | [17] 0.004 | [18] -0.005 | [19] -0.018 | [20] 0.011

FTO (UniProt Q9C0B1)
inactive: [1] 0 | [2] -0.203 | [3] -0.016 | [4] -0.016 | [5] 0.046 | [6] -0.004 | [7] 0.015 | [8] 0.018 | [9] 0.007 | [10] 0.032 | [11] 0.023 | [12] 0.011 | [13] -0.001 | [14] 0.011 | [15] 0.052 | [16] 0.007 | [17] -0.001 | [18] -0.04 | [19] -0.019 | [20] 0.006

GGA1 isoform 6 (UniProt Q9UJY5)
inactive: [1] -0.053 | [2] -0.025 | [3] 0.005 | [4] 0.016 | [5] 0.037 | [6] 0.02 | [7] -0.022 | [8] -0.033 | [9] 0.004 | [10] 0.023 | [11] -0.042 | [12] -0.015 | [13] -0.06 | [14] -0.039 | [15] -0.035 | [16] 0.008 | [17] 0.007 | [18] 0.018 | [19] 0.011 | [20] -0.027

FUBP3 (UniProt Q96I24)
inactive: [1] -0.023 | [2] 0.003 | [3] 0.04 | [4] 0.007 | [5] -0.009 | [6] -0.141 | [7] -0.033 | [8] -0.038 | [9] 0.003 | [10] 0.023 | [11] 0.024 | [12] 0.002 | [13] 0.021 | [14] -0.051 | [15] 0.014 | [16] -0.018 | [17] 0.072 | [18] -0.149 | [19] -0.003 | [20] -0.018

GALK2 (UniProt Q01415)
inactive: [1] 0.025 | [2] 0.053 | [3] 0 | [4] -0.01 | [5] 0.013 | [6] 0.034 | [7] -0.01 | [8] -0.009 | [9] 0.023 | [10] 0.023 | [11] -0.022 | [12] -0.017 | [13] -0.025 | [14] -0.023 | [15] -0.017 | [16] -0.057 | [17] -0.035 | [18] 0.016 | [19] -0.007 | [20] -0.03

2 records picked at random from those above:
GATAD2A isoform 3 (UniProt Q86YP4)
inactive: [1] 0.012 | [2] -0.124 | [3] -0.003 | [4] -0.034 | [5] 0.003 | [6] -0.002 | [7] -0.035 | [8] -0.037 | [9] 0.034 | [10] -0.016 | [11] 0.017 | [12] 0.008 | [13] 0.023 | [14] 0.01 | [15] 0.012 | [16] -0.004 | [17] 0.005 | [18] 0.01 | [19] 0.016 | [20] -0.005

FTO (UniProt Q9C0B1)
inactive: [1] 0 | [2] -0.203 | [3] -0.016 | [4] -0.016 | [5] 0.046 | [6] -0.004 | [7] 0.015 | [8] 0.018 | [9] 0.007 | [10] 0.032 | [11] 0.023 | [12] 0.011 | [13] -0.001 | [14] 0.011 | [15] 0.052 | [16] 0.007 | [17] -0.001 | [18] -0.04 | [19] -0.019 | [20] 0.006

More results.

FOXO3 (UniProt O43524)
inactive: [1] -0.02 | [2] 0.083 | [3] 0.047 | [4] -0.02 | [5] -0.018 | [6] 0.024 | [7] -0.026 | [8] 0.01 | [9] 0.018 | [10] 0.016 | [11] -0.015 | [12] 0 | [13] -0.011 | [14] 0.002 | [15] 0.092 | [16] 0.117 | [17] 0.008 | [18] 0.036 | [19] 0.01 | [20] -0.192

FTSJ3 (UniProt Q8IY81)
inactive: [1] 0.064 | [2] -0.157 | [3] 0.002 | [4] -0.014 | [5] -0.028 | [6] 0.025 | [7] 0.065 | [8] 0.012 | [9] 0.022 | [10] -0.018 | [11] 0.05 | [12] 0.005 | [13] 0.026 | [14] -0.033 | [15] 0.086 | [16] 0.016 | [17] -0.037 | [18] -0.01 | [19] 0.002 | [20] 0.04

GBF1 (UniProt Q92538)
inactive: [1] 0.044 | [2] 0.043 | [3] -0.036 | [4] -0.009 | [5] 0.002 | [6] -0.008 | [7] -0.012 | [8] -0.007 | [9] 0.023 | [10] 0.058 | [11] 0.007 | [12] -0.001 | [13] 0.051 | [14] -0.03 | [15] -0.011 | [16] -0.003 | [17] -0.011 | [18] -0.015 | [19] 0.017 | [20] 0.012

GDAP2 (UniProt Q9NXN4)
inactive: [1] -0.027 | [2] 0.005 | [3] 0.009 | [4] 0.048 | [5] 0.037 | [6] 0.012 | [7] 0.033 | [8] -0.036 | [9] 0.046 | [10] -0.035 | [11] -0.039 | [12] 0.016 | [13] -0.007 | [14] 0.036 | [15] -0.039 | [16] 0.021 | [17] 0.032 | [18] 0.018 | [19] 0.025 | [20] -0.026

FOXJ3 (UniProt Q9UPW0)
inactive: [1] 0.018 | [2] 0.085 | [3] -0.015 | [4] -0.001 | [5] 0.014 | [6] 0.032 | [7] -0.01 | [8] -0.035 | [9] -0.013 | [10] -0.025 | [11] -0.003 | [12] 0.002 | [13] -0.021 | [14] -0.08 | [15] 0.047 | [16] -0.026 | [17] -0.022 | [18] 0.071 | [19] 0.025 | [20] 0.006

GCN1 (UniProt Q92616)
inactive: [1] 0.048 | [2] 0.066 | [3] -0.086 | [4] 0.022 | [5] 0.054 | [6] 0.026 | [7] -0.016 | [8] -0.008 | [9] 0.003 | [10] 0.008 | [11] 0.016 | [12] 0.008 | [13] 0.064 | [14] 0.028 | [15] -0.031 | [16] -0.016 | [17] -0.01 | [18] 0.008 | [19] 0.075 | [20] 0.026

GAGE5 (UniProt Q13069)
inactive: [1] 0.012 | [2] 0.009 | [3] 0.017 | [4] 0.031 | [5] -0.016 | [6] -0.059 | [7] 0 | [8] 0.012 | [9] 0.098 | [10] 0.027 | [11] -0.035 | [12] -0.075 | [13] -0.054 | [14] -0.092 | [15] 0.018 | [16] -0.028 | [17] 0.039 | [18] 0.045 | [19] -0.024 | [20] 0.032

GEMIN4 (UniProt P57678)
inactive: [1] 0.023 | [2] -0.029 | [3] -0.036 | [4] 0.046 | [5] 0.038 | [6] -0.017 | [7] -0.032 | [8] -0.004 | [9] 0.018 | [10] -0.023 | [11] 0.003 | [12] -0.028 | [13] 0.056 | [14] 0.001 | [15] 0.051 | [16] 0.007 | [17] -0.048 | [18] -0.005 | [19] 0.059 | [20] 0.011

GAB1 isoform 2 (UniProt Q13480)
inactive: [1] 0.018 | [2] 0.009 | [3] 0.045 | [4] 0.023 | [5] -0.004 | [6] -0.02 | [7] 0.005 | [8] 0.096 | [9] -0.018 | [10] 0.058 | [11] -0.005 | [12] -0.021 | [13] 0.02 | [14] -0.032 | [15] 0.028 | [16] -0.037 | [17] -0.01 | [18] 0.052 | [19] 0 | [20] -0.004

GALT (UniProt P07902)
inactive: [1] 0.015 | [2] 0.106 | [3] 0.019 | [4] 0.085 | [5] 0.021 | [6] -0.067 | [7] -0.22 | [8] -0.033 | [9] 0.007 | [10] 0.051 | [11] 0.058 | [12] 0.005 | [13] -0.026 | [14] -0.123 | [15] 0.051 | [16] -0.032 | [17] -0.01 | [18] 0.016 | [19] 0.02 | [20] -0.009

From the supplement of paper PMC10849652
